Results taken from PubChem BioAssay AID1117319 (Southern Research Institute, 2015).
Values joined by “and” are separate entries in the source; they are usually repeats but may differ in a detail not shown here. Identical values can stand only once. Out of some 260,000 compounds screened, about 1,500 (0.58%) were called active. Inconclusive means that the source gave no clear call. Such entries were picked first, then a sample of the others.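 How the source made its calls: active means inhibition above a set limit at one or more doses, reproduced on every date tested; inconclusive means results disagree between test dates, or hit never tested in dose response; inactive means the rest.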

Protein sequences, listed by entry. Tags and fused reporters are not part of them. Lines headed by an entry give the natural chain unless they say otherwise; changes in a name come on top.
UniProt P69720: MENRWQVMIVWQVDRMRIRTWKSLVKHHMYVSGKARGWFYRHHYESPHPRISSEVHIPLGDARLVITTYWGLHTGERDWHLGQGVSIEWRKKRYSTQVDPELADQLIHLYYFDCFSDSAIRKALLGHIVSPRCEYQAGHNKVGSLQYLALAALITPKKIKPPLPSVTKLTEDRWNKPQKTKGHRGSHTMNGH
UniProt P69721: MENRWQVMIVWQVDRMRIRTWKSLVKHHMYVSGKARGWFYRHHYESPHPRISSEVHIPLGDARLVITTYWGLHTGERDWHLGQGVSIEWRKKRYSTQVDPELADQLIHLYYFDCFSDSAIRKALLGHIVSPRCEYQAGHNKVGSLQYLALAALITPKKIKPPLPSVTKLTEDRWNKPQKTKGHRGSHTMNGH
UniProt P69722: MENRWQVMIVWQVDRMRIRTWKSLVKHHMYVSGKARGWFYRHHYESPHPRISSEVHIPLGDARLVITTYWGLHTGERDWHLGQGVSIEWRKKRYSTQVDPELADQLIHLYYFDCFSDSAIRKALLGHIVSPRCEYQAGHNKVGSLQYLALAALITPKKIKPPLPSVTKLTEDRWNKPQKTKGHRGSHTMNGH
UniProt P69723: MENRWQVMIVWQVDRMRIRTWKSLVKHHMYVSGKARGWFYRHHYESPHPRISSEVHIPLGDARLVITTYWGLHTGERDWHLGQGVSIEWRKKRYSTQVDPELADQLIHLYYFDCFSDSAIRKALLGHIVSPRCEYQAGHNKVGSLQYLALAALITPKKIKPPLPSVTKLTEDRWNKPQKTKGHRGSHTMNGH
UniProt Q9HC16: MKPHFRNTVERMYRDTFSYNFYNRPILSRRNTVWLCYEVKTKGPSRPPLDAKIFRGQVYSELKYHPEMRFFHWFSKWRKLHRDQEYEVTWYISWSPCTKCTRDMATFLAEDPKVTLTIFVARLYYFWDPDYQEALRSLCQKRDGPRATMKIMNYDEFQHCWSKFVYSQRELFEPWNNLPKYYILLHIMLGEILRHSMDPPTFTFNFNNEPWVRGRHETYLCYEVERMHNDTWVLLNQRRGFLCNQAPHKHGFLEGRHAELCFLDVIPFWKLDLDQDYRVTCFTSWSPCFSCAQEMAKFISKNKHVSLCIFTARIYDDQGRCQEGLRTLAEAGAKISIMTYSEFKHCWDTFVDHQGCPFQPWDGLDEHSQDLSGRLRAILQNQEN

Biological target: Virion infectivity factor (Human immunodeficiency virus type 1 group M subtype B (isolate BH10)) + Virion infectivity factor (Human immunodeficiency virus type 1 group M subtype B (isolate BRU/LAI)) + Virion infectivity factor (Human immunodeficiency virus type 1 group M subtype B (isolate PCV12)) + Virion infectivity factor (Human immunodeficiency virus type 1 group M subtype B (isolate HXB2)) + DNA dC->dU-editing enzyme APOBEC-3G (Homo sapiens) (UniProt P69720+P69721+P69722+P69723+Q9HC16)
Test: inhibitors of Vif binding to APOBEC3G peptide, primary screen, biochemical, TR-FRET, GST-Vif 1-94, biotin-A3G peptide, dose response retest (AID 1117319);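 further: Vif residues 1-94 fused to GST binding biotinylated APOBEC3G peptide 110-148; 0% = full assay without inhibitor and 100% = GST in place of GST-Vif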
Settings: active compounds read high

SMILES	inhibition
O=C(Nc1ncc2c(n1)CC(c1ccco1)CC2=O)c1ccco1 (stereo not given)	inconclusive: 45.9%
CSCCC(NS(=O)(=O)c1ccccc1F)C(=O)NCC(C)(C)N1CCOCC1 (stereo not given)	inactive: 1.29%
CCOC(=O)Cn1c(CCC(=O)O)ccc1-c1ccc(F)cc1	inconclusive: 56.2%
Cc1nn(-c2cccc(Cl)c2)nc1C(=O)Nc1cccc(C(=O)NC2CC2)c1	inactive: -8.35%
COC(=O)C(C)Sc1nc2c(c(=O)[nH]c(=O)n2C)n1CCCc1ccccc1 (stereo not given)	inconclusive: 36.9%
CCOC(=O)C1CCN(Cc2ccc(F)c(F)c2)CC1	inconclusive: 47.5%
O=C(N/N=C/c1cc(Br)c(Br)o1)c1cccnc1	inconclusive: 58.3%
Nc1nonc1C(=O)N/N=C/c1ccc(-c2cccc([N+](=O)[O-])c2)o1	inactive: -3.49%
CC(C(=O)O/N=C(\N)c1cccnc1)c1ccc([N+](=O)[O-])cc1 (stereo not given)	inactive: -1.85%
CCc1ccc(CN(C)C(C)C(=O)NCc2ccccc2)cc1 (stereo not given)	inactive: -5.54%
CC(=O)N1CCc2cc(S(=O)(=O)NCCCOC(C)C)ccc21	inconclusive: 60.7%
COC(=O)c1c(CCl)noc1C(=O)NCC1CCCO1 (stereo not given)	inconclusive: 43.9%
CCc1ccc(NC(=O)C2CCN(S(=O)(=O)c3c(C)[nH]c(=O)[nH]c3=O)CC2)cc1	inconclusive: 33.5%
CCN(CC)C(=O)CSc1nnc(-c2ccccn2)n1-c1ccccc1OC	inactive: -5.38%
Cc1cc(C=O)c(C)n1-c1cccc(C(=O)O)c1	inconclusive: 40%
CCCN1CCC(NC(=S)Nc2ccc(S(N)(=O)=O)cc2)CC1	inconclusive: 47.6%
Cc1ccc(C)c(N2CCN(CCCNC(=O)CCn3c(=O)c4cccn4c4cccnc43)CC2)c1	inconclusive: 50.7%
CCN(CC)c1ccc(/C=N/N2CCOCC2)c(O)c1	inactive: -1.22%
Cc1ccc(CNC(=O)CSc2nc(N3CCCCC3)nc(N3CCCCC3)n2)cc1	inactive: 4.78%
FC(F)(F)c1cccc(N2CCN(C(=S)NCC3CCCO3)CC2)c1 (stereo not given)	inconclusive: 44.7%
Cn1cc(NC(=O)Nc2ccc(C(F)(F)F)cc2)c(C(F)(F)F)n1	inconclusive: 39.7%
O=c1c(O)c(-c2ccc(O)cc2O)oc2cc(O)cc(O)c12	inconclusive: 43%
Cc1cccc(C)c1NC(=O)Nc1cccs1	inconclusive: 52.8%

SMILES	inhibition
CN(C)CCNC(=O)C(=O)NCC1OCCN1S(=O)(=O)c1ccc([N+](=O)[O-])cc1 (stereo not given)	inconclusive: 40.5%
Cc1ccc(/C([O-])=C(/C(=S)NCc2ccco2)[n+]2ccccc2)cc1[N+](=O)[O-]	inconclusive: 44%
O=C(CN1CCC(n2nnc3cc(F)ccc32)CC1)Nc1ccc2c(c1)CCC2	inconclusive: 33.5%
Cc1nn(-c2ccccc2)c2c1C1(C(=O)N(C)c3ccccc31)N(c1ccccc1)C(=O)N2 (stereo not given)	inconclusive: 34.9%
COC(=O)CNC(=O)c1nn(-c2cccc(OC)c2)c(=O)c2ccccc12	inconclusive: 44.5%
N#Cc1c(NC(=O)CSc2ncn[nH]2)sc2c1CCCC2	inconclusive: 40%
O=C1N/C(=N/S(=O)(=O)Cc2ccccc2)S/C1=C/c1ccc2c(c1)OCO2	inconclusive: 38.2%
CCNC(=O)COC(=O)c1cc(-c2ccc(OC)cc2)nc2ccccc12	inactive: 17.1%
O=C(C=C1SCCS1)/C=C/c1ccco1	inconclusive: 51.9%
CCOCCCNC(=S)NNC(=O)CCn1nc(C)c(Br)c1C	inconclusive: 39.9%
Cc1ccccc1OCC(=O)OCC(=O)Nc1ccc(S(N)(=O)=O)cc1	inconclusive: 61.7%
Cc1c(NC(=O)c2cc3ccccc3o2)c(=O)n(-c2ccccc2)n1C	inconclusive: 33.3%
O=C(NNc1ccccc1)C(=O)NNS(=O)(=O)c1ccc(CCCl)cc1	inconclusive: 49.8%
CC1(C)Cc2c(c(-c3ccco3)[nH]c(=O)c2C#N)CS1	inconclusive: 47.5%
CC(C)c1ccc(S(=O)(=O)N2CCN(C(=O)C3CCCCC3)CC2)cc1	inconclusive: 35.1%
Cc1cc(C)c(C#N)c(SCc2nc3ccccc3[nH]2)n1	inconclusive: 38.3%
CCOc1cc(NC(=O)C2CC2)c(OCC)cc1NC(=O)CCn1nnc2ccccc21	inconclusive: 43.6%
CCOC(=O)c1cnc2c(C)c(Cl)ccc2c1Nc1ccc(S(=O)(=O)Nc2ncccn2)cc1	inconclusive: 38.5%
Oc1ccc(NC(=S)N=Nc2c(O)[nH]c3ccccc23)cc1	inconclusive: 51.9%
CCCCCNC(=O)c1ccc2c(=O)n(CCCN3CCCC3=O)c(=S)[nH]c2c1	inconclusive: 63.3%
CCN1C(=O)c2cccc3c(S(=O)(=O)NCC4CCCO4)ccc1c23 (stereo not given)	inconclusive: 59.6%
COCCn1nnnc1C(c1ccccc1)N1CCN(c2ccccc2)CC1 (stereo not given)	inconclusive: 37.5%
CC(=O)Nc1ccc(Oc2cc(C#N)c(C#N)cc2N2CCCCCC2)cc1	inconclusive: 49.4%

SMILES	inhibition
CS(=O)(=O)c1ccccc1C(=O)N1CCN(Cc2ccccc2)CC1	inconclusive: 47.9%
CC(C)c1ccc(C(=O)NCCCN(C)C)cc1	inconclusive: 41.7%
O=C(NNC(=S)NC(=O)c1ccccc1[N+](=O)[O-])c1ccccc1[N+](=O)[O-]	inconclusive: 38.9%
COc1ccccc1/C=C/C=N/NC(=O)c1ccncc1	inactive: -1.29%
CC1CCc2ccccc2N1C(N)=Nc1ccccc1 (stereo not given)	inconclusive: 45.4%
CCOc1ccc2nc(C)cc(Nc3ccc(N4CCOCC4)cc3)c2c1	inconclusive: 34.3%
Fc1ccccc1-c1nc(-c2ccccc2)no1	inconclusive: 42.4%
CCOc1ccc(NC(=S)Nc2ccccc2C2CC2)cc1	inconclusive: 38.9%
CCn1c(C)cc(/C=C2/NC(=O)N(c3ccccc3)C2=O)c1C	inconclusive: 36.5%
Cc1ccc(-c2cc(Cc3ccc(N(C)C)cc3)c(=O)[nH]n2)cc1	inactive: -0.03%
O=C(CN1CCN(c2ccccn2)CC1)N1c2ccccc2CCc2ccccc21	inconclusive: 44.6%
CCOC(=O)c1c(NC(NC(C)=O)C(Cl)(Cl)Cl)sc(C(C)=O)c1C (stereo not given)	inconclusive: 37.8%
Clc1cnc(Nc2cccnc2)c(Cl)c1	inconclusive: 33.3%
O=C(Nc1cccc2c1CCCC2)C1CCCN(S(=O)(=O)c2cccc3nonc23)C1 (stereo not given)	inactive: 22.9% and inactive: -4.27%
COc1ccccc1OCc1ccc(C(=O)NCc2cccnc2)o1	inconclusive: 53.8%
CC(=O)c1ccc(NC(=O)CSc2nnc(Cn3c(=O)sc4ccccc43)n2C)cc1	inconclusive: 46.6%
Cc1cc(=O)[nH]c(SCC(=O)NCc2ccco2)n1	inconclusive: 45.5%
N#Cc1ccc(CSc2nnc(-c3ccccc3)n2Cc2ccco2)cc1	inactive: 3.24%
O=c1[nH]c(N2CCN(Cc3ccc4c(c3)OCO4)CC2)nc2c1CCCC2	inconclusive: 44.1%
Cc1cccc(C(=O)NCCc2ccc(S(N)(=O)=O)cc2)c1[N+](=O)[O-]	inconclusive: 52.8%
CC(=O)Oc1ccc(C(=O)OCC(=O)c2c(N)n(C)c(=O)n(C)c2=O)cc1OC(C)=O	inconclusive: 35.9%
COc1ccc(NC(=O)CC2Nc3ccccc3NC2=O)c([N+](=O)[O-])c1 (stereo not given)	inconclusive: 59.4%
Nc1nnc(SCC(=O)NCc2ccc3c(c2)OCO3)s1	inconclusive: 54.2%

SMILES	inhibition
CCCCn1c(N)c(N(CCC(C)C)C(=O)CSc2nnc(C)s2)c(=O)[nH]c1=O	inactive: 2.42%
COc1cc2cc(CN(CCCO)S(=O)(=O)c3ccccc3Cl)c(=O)[nH]c2cc1OC	inconclusive: 35%
O=C(NCc1cn2ccsc2n1)c1cccs1	inconclusive: 56.7%
COc1ccc(-n2c(Cn3nnc4ccccc43)n[nH]c2=S)cc1	inconclusive: 40.5%
CC1CCN(c2ncnc3c2cnn3Cc2ccc(Cl)cc2)CC1	inconclusive: 33.5%
Cc1nc2cc(-c3ccccc3)nn2c(C)c1CCC(=O)N1CCN(c2ccccc2)CC1	inactive: -3.02%
O=C(O)CSc1c(-c2cccs2)[nH]c2ccccc12	inconclusive: 36.5%
CCOc1ccc(OCCOCCn2ccnc2)cc1	inconclusive: 56.8%
O=C(c1ccc(=O)oc1)N1CCOCC1	inconclusive: 38.3%
O=C(NCc1ccco1)Nc1ccccc1Cl	inconclusive: 48.9%
Cc1nc(C)c(C(=O)Nc2cccc(Cl)c2)o1	inconclusive: 51%
Cc1cc(C(=O)COc2nncc3ccccc23)c(C)n1C	inconclusive: 35.5%
Cn1cnnc1SCC(=O)N1CCN(C(=O)c2ccco2)CC1	inconclusive: 39.7%
Cc1cccc(N(C(=O)CNC(=O)c2ccco2)C(C(=O)NC2CCCC2)c2cccnc2)c1 (stereo not given)	inactive: -6.56%
COc1ccc(CC(NC(C)=O)C(=O)N2CCN(C(=O)Nc3ccc(Cl)cc3)CC2)cc1OC (stereo not given)	inconclusive: 40%
CC12CCCC(=O)C1CCC(=Cc1ccco1)C2=O (stereo not given)	inactive: 2.03%
Cc1nnc(NC(=O)/C=C/c2ccco2)s1	inconclusive: 37%
O=C(C=Cc1ccco1)c1ccco1	inactive: 3.42%
Nc1cc(N)nc(SCC(=O)NCC2CCCO2)n1 (stereo not given)	inconclusive: 40.9%
CC(C)CCN1CCN(Cc2cccs2)CC1CCO (stereo not given)	inconclusive: 47.6%
CN(C)S(=O)(=O)c1ccc(C(=O)Nc2nnc(SCc3cccc(F)c3)s2)cc1	inconclusive: 34%
